The other results are listed elsewhere or left out.

Protein sequences, listed by entry. Tags and fused reporters are not part of them.
UniProt Q0JBA9, entry or part of it: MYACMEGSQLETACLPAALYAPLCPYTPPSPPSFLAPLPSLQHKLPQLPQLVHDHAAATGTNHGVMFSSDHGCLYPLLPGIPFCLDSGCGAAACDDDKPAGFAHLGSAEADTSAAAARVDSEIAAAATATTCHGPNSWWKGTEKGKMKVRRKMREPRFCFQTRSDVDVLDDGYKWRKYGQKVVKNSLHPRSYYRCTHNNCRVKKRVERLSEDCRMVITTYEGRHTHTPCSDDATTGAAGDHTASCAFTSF

The target in this test is OsWRKY34 (Oryza sativa, UniProt Q0JBA9 1-250). In words: protein-binding microarray (RPBM); PBS, 2% BSA, 51.3 ng/ul salmon testes DNA, 50 uM zinc acetate, 200 nM TF, 25 C, 1 h; high values mean tight binding. The settings on record: protein: recombinant; tags: N-terminal polyhistidine and DsRed monomer fusion (pET32a); label: CyDye5-dUTP incorporated in the synthesized complementary strand; 3' TTTTT single-stranded linker to array surface; dsDNA, one strand shown. The method in brief: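 Transcription factors, each fused N-terminally to a polyhistidine tag and DsRed, were expressed in E. coli BL21-CodonPlus and purified on Ni–NTA. A custom Agilent array was made double-stranded by primer extension with Cy5-dUTP and blocked with 2% BSA. It was incubated with 200 nM protein in PBS, 2% BSA, salmon testes DNA and 50 µM zinc acetate at 25 °C for 1 h, then washed. The binding signal is per-feature fluorescence intensity (arbitrary units) read on an Axon 4000B scanner.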
“AGCTTCTAGAATATTCTAGATCGTGGTTAGTGCATCCATGCGGAGTCACCTAGTGCAG”: the binding signal is 8210 fluorescence intensity (a.u.).

With “AATATGATACTCTCACTCGGTCAATTTGGCTGGATATGTTCGGAGTCACCTAGTGCAG”, the binding signal is 8210 fluorescence intensity (a.u.).

Take “TTTCCCCTCGCTAGCTGTGTGCGCACCACCACCACCCAACCGGAGTCACCTAGTGCAG”: the binding signal is 9010 fluorescence intensity (a.u.).

As to “GCTGCTGCTGCTGCATGGTGTGATGGTGGTGGTGGTGGTCCGGAGTCACCTAGTGCAG”, the binding signal is 9330 fluorescence intensity (a.u.).

For “CCGCTCGATTCCCCGCGCTTTTATTCCCTCCTCTCTCTCTCGGAGTCACCTAGTGCAG”, the binding signal was 8030 fluorescence intensity (a.u.).

On to “AACCACCGACACTTTCTCTGTCAAAACTAGCTGGAACTATCGGAGTCACCTAGTGCAG”, for which the binding signal was 8090 fluorescence intensity (a.u.).

Regarding “GTGGTTTGTTTGAACGATTTTCAACCCAGAAATGTACTTACGGAGTCACCTAGTGCAG”, the binding signal was 8650 fluorescence intensity (a.u.).

Turning to “TCCCTCAATTTGTCGACGAGTCTGAATTCATCCCTGAACTCGGAGTCACCTAGTGCAG”, the binding signal was 8280 fluorescence intensity (a.u.).

As for “GCCCAATTTTGACCATTCGTCTTATTTAAAAATTTGTTAACGGAGTCACCTAGTGCAG”, the binding signal was 8550 fluorescence intensity (a.u.).

“CATCATAAGCTATATCCATCTTTGCAGTTTGTACTTTGTGCGGAGTCACCTAGTGCAG”: the binding signal was 9650 fluorescence intensity (a.u.).

As for “GTTTGTTGGGAGGGCCATGGTGTGAAGCCATTTTCCACCACGGAGTCACCTAGTGCAG”, the binding signal is 9330 fluorescence intensity (a.u.).

As for “TTCGGTTCTGTCCCTAGCACATGAGACAACTAGCCGGATGCGGAGTCACCTAGTGCAG”, the binding signal is 8160 fluorescence intensity (a.u.).

As for “GTACGTACATACCATATAGGAAGAGGGTGGGTTGTTGGGGCGGAGTCACCTAGTGCAG”, the binding signal is 10700 fluorescence intensity (a.u.).

Turning to “TGCGCGCTCGCTCTTCTCCACATCTCGTGGACTCGTTCGTCGGAGTCACCTAGTGCAG”, the binding signal was 8280 fluorescence intensity (a.u.).

For “GCTCCTGTCTGATTCTGTTACATGTCTTGCTTGGCCAGAGCGGAGTCACCTAGTGCAG”, the binding signal is 9780 fluorescence intensity (a.u.).

As for “CCAAACCCAACCCTCGACGCCAATTAAACACCAATTTTCTCGGAGTCACCTAGTGCAG”, the binding signal was 8920 fluorescence intensity (a.u.).

For the sequence “CTATGCTCATCCAATCTCTGAAGCTCAGACCATCTCTCCACGGAGTCACCTAGTGCAG”, the binding signal is 8100 fluorescence intensity (a.u.).

As for “AGCTCGTTACCCCAAACCCTACCCATCCGCGGTCAGCTATCGGAGTCACCTAGTGCAG”, the binding signal was 8560 fluorescence intensity (a.u.).

For “ACCTTTGCTCACGATCCCAATGGCTTTAATTATGTACCACCGGAGTCACCTAGTGCAG”, the binding signal is 8830 fluorescence intensity (a.u.).

As for “TTTCATATCTACACCTATCTCTAGTATTTTTTTCATGAATCGGAGTCACCTAGTGCAG”, the binding signal is 9840 fluorescence intensity (a.u.).

Take “ACCCTGACAAAATTCACCAGTACTCCTAATCCACGCCACCCGGAGTCACCTAGTGCAG”: the binding signal was 9520 fluorescence intensity (a.u.).

Consider “GTCTTGAGTTGAAAATGTTACTGTTTTTTTTCTACAAACTCGGAGTCACCTAGTGCAG”, for which the binding signal was 8060 fluorescence intensity (a.u.).

“AAAAAAATCTCGTTGTTACTGTCTATAGATCACTATATTACGGAGTCACCTAGTGCAG”: the binding signal was 8570 fluorescence intensity (a.u.).

Consider “TTACATATTTAATCTCGTGCAAGCTTACAACATGTTCTATCGGAGTCACCTAGTGCAG”, for which the binding signal is 8700 fluorescence intensity (a.u.).

For the sequence “CGAGTGCAATGTGATTGGTAGGGGTGGCTCAGGGAAAGTGCGGAGTCACCTAGTGCAG”, the binding signal was 8120 fluorescence intensity (a.u.).

As for “GTACCCCTAACTGTTACTCCCTCCGTTTCACAATGTAAGTCGGAGTCACCTAGTGCAG”, the binding signal was 9130 fluorescence intensity (a.u.).

“TTCTACCCTGGTGGCGACCTCCACTCGCTCTGCCACCGCACGGAGTCACCTAGTGCAG”: the binding signal is 10600 fluorescence intensity (a.u.).

With “TCTCTCTTTTCTTTATCCTACTATCTCTGTTTACCTTTTCCGGAGTCACCTAGTGCAG”, the binding signal was 12100 fluorescence intensity (a.u.).

Turning to “TCTTTTCACTCCTGGCTAACCCTAGTACTAGTATTGCATTCGGAGTCACCTAGTGCAG”, the binding signal was 10900 fluorescence intensity (a.u.).

On to “CCATTCCTCCATCCTGCCGTTGCCACGTTCCCGTGTCGTTCGGAGTCACCTAGTGCAG”, for which the binding signal is 9050 fluorescence intensity (a.u.).

On to “TTTTTCCTGAGCTAATCTGCAGTTCTTCGTGTTTTCAATTCGGAGTCACCTAGTGCAG”, for which the binding signal is 9500 fluorescence intensity (a.u.).

On to “AACATGATTAATATTTTATGTGTGACTTGCCTTTTTAATTCGGAGTCACCTAGTGCAG”, for which the binding signal was 8460 fluorescence intensity (a.u.).

As for “CACCTCACCCAACCAATCCGCCGCAGCCACCTCACCGCGTCGGAGTCACCTAGTGCAG”, the binding signal is 8300 fluorescence intensity (a.u.).

Regarding “AGCCATTCTCTGTTCCAAGTACAAAGGACAGCTATTTAACCGGAGTCACCTAGTGCAG”, the binding signal is 8120 fluorescence intensity (a.u.).

“GTCGCCGCCTCCATCTCCTGCGTCGCCGCGGCGTCTCACACGGAGTCACCTAGTGCAG”: the binding signal was 10000 fluorescence intensity (a.u.).

Regarding “GCATTCATCTCAGTCTCTCTCAGCTACCTCCCGCGATCCGCGGAGTCACCTAGTGCAG”, the binding signal is 9350 fluorescence intensity (a.u.).

In the case of “AAGGAGTGCTAGGGTTCCGTCCGTCCCAGCCTGGCCTACCCGGAGTCACCTAGTGCAG”, the binding signal is 8410 fluorescence intensity (a.u.).

For the sequence “AGAACTAGAAGACCACACGCTGTCTCACTTGTTGCAAAATCGGAGTCACCTAGTGCAG”, the binding signal is 8050 fluorescence intensity (a.u.).

On to “GTGCGACGGCGGCGGCGAAGTCAGTCCCCTCCTCGAGGGGCGGAGTCACCTAGTGCAG”, for which the binding signal is 27700 fluorescence intensity (a.u.).

In the case of “GTACCGACAACACCAAGCTTGTCTGGCCTCAACTCTCTCGCGGAGTCACCTAGTGCAG”, the binding signal is 8370 fluorescence intensity (a.u.).

“TGGAGGAGGTGGTGGTGGTGGTAGTAGTAGTACGCCGGGGCGGAGTCACCTAGTGCAG”: the binding signal was 14200 fluorescence intensity (a.u.).

Take “GTAGTAGGTAGCAGCAGTCTCAAACATGTCTTCTGAGTAGCGGAGTCACCTAGTGCAG”: the binding signal was 9420 fluorescence intensity (a.u.).

The values are drawn from paper PMC7819943, “Rice protein-binding microarrays: a tool to detect cis-acting elements near promoter regions in rice”.
